No constants are given. Whether binding was seen depends on the method and setting. Binding seen in cells or lysates may run through a third protein. Some entries that bind do so weakly or less than the wild type.
Tests used:
[1] = molecular target: CTIP2, endogenous in microglial cells (human (endogenous in the human microglial cell line)) (UniProt Q9C0K0); experiment: co-IP; nuclear protein extract of microglial cells, endogenous proteins; CTIP2 and KAP1 antibodies on protein A/G magnetic beads; Western blot
[2] = molecular target: KAP1, endogenous in HEK cells (human (endogenous in HEK)) (UniProt Q13263); experiment: co-IP; nuclear protein extract of transfected HEK cells; immunoprecipitation of endogenous KAP1 with antibody-coated protein A/G magnetic beads, overnight at 4 °C; low and high salt washes; Western blot
flag-KAP1 = flag-KAP1 (UniProt Q13263); experiment: co-IP; 500 μg nuclear protein extract of HEK cells 48 h after transfection, treated or not with RNase; anti-flag M2 gel; washes with low salt (120 mM NaCl) and high salt (0.5 M NaCl) buffers; Western blot

Chains of the proteins cited; added tags and fusions are not shown.
UniProt Q9C0K0: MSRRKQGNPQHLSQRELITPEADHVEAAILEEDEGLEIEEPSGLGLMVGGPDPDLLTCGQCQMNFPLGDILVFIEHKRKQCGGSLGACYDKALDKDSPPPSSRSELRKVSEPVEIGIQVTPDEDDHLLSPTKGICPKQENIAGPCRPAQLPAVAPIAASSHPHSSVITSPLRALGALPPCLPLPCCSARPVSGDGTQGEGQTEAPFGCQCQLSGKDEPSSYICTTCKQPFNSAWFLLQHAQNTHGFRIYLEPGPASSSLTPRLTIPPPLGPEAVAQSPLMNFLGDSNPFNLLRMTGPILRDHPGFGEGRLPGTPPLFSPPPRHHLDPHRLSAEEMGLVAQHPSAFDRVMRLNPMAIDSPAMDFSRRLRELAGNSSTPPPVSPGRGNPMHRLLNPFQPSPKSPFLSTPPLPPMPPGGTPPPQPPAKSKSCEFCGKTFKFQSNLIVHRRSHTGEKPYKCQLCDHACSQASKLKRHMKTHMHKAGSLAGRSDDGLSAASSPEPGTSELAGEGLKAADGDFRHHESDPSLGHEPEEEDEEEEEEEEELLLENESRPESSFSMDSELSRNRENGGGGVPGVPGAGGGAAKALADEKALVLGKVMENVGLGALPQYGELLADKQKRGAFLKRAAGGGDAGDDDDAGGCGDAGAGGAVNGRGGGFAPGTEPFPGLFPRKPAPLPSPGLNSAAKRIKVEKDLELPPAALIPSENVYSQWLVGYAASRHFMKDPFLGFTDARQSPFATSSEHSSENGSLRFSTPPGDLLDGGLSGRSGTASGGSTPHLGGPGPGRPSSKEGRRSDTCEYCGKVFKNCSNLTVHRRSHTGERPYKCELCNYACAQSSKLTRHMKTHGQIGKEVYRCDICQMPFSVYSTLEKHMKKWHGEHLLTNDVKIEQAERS
UniProt Q13263: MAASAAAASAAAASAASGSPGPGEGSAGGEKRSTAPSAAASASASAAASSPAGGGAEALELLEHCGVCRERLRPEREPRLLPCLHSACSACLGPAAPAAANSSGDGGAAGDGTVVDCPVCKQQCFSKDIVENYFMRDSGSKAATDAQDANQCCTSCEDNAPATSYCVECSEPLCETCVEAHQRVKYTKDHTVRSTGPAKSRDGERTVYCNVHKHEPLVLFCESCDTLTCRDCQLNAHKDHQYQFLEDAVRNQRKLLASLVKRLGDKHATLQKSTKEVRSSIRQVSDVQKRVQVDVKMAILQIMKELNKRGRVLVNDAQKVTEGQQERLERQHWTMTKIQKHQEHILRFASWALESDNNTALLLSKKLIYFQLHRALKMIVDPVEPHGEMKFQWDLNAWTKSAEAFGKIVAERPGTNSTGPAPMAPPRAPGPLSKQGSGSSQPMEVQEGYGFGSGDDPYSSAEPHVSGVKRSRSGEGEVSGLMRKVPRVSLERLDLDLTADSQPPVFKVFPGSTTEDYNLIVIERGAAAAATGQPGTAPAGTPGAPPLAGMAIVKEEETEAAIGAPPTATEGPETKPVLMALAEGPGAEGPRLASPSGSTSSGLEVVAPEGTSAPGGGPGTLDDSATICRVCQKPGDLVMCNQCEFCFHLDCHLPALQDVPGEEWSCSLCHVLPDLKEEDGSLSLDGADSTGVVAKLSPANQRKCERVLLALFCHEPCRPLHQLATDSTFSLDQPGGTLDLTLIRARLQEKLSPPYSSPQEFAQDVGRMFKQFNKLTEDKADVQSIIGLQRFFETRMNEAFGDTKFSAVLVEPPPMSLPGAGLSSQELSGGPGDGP
UniProt P04608: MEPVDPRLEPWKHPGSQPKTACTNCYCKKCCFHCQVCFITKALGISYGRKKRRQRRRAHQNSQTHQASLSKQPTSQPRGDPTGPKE

| binding [1] | Substance | binding [2] | binding (flag-KAP1) |
| --- | --- | --- | --- |
| binds | KAP1, endogenous in microglial cells (from UniProt Q13263 1-835) |  |  |
|  | HIV-1 Tat (from UniProt P04608 1-86) | binds | binds |

Source: PMC7846785
